# Further values from the same series stand in other lists.
# System: tyrosine kinase activity in lysates prepared from cell lines
# Assay: PAMCHIP96 tyrosine peptide array profiling of lysates of 27 cell lines in absence or presence of MTKI
# Type: biochemical
# Details: 5 μM
# Excerpt: PAMGENE technology using the tyrosine peptide PAMCHIP96 allows the kinetic detection of the phosphorylation of 144 tyrosine peptides spotted onto a 3-dimensional porous well of a 96-well plate (www.pamgene.com). This technology can be used to measure the activity of purified kinases and the effects of kinase inhibitors thereon. Phosphotyrosine peptides are detected using a mix of fluorescently labeled anti-phosphotyrosine antibodies. Phosphorylation of peptides can be followed in real time due to the possibility of removing the reaction mix for a few seconds during the assay by a pumping mechanism to allow CCD camera detection of phosphopeptides bound to the fluorescent antibody. These consecutive datapoints (quantified spot images) generate a kinetic curve for each individual peptide, and allow for the calculation of initial velocities and endpoints associated with each individual peptide.
# Cells cultured in appropriate medium in T175 flasks, treated with compound if necessary, are harvested at 70-90% confluency.
# Media is removed, cells are washed with 10 ml ice cold PBS containing 0.1 mM NaVO4 and lysed in 1 ml of M-PER buffer (PIERCE) containing phosphatase and protease inhibitors (HALT, PIERCE). Cells are collected by scraping, and centrifuged for 10 minutes at 12 000×g. Supernatant lysates are filtered through a 0.2 micrometer filter (Anotop 0.2 μm anopore filter; Whatmann). Lysates are flash frozen in liquid nitrogen and stored at −80C.
# Just prior to the PAMCHIP experiment, total protein content is quantitated in the lysates and lysates are diluted to 1 mg/ml in a total volume of 200 μl, with M-PER phosphatase and protease inhibitors (HALT, PIERCE). 10 μg of total lysate (corresponding to 10 μl) will be used per well on the PAMCHIP96.
# To all 200 μl lysates 10 units of benzonase (Novagen) is added and lysates are further incubated for 30 min on ice and next centrifuged for 10 minutes at 12 000×g. The supernatant is then 1:1 diluted with compound or DMSO diluted to the appropriate concentration in water, and lysates are further incubated exactly 60 min on ice. Meanwhile, a PAMCHIP96 tyrosine peptide chip (PAMGENE) is blocked with 2% BSA (filtered through a 0.2 μm anopore filter; Whatmann) using the standard setting of a PAMSTATION96 (PAMGENE).
# The composition of the kinase buffer is as follows: 1×ABL buffer (NEB), 0.5 mg/ml BSA (from 10 mg/ml NEB stock), 100 μM ATP (dissolved and diluted in 1×ABL buffer), 5 μg/ml PY20-FITC (ExAlpha Biologicals, azide-free preparation). A twofold concentrated kinase buffer is prepared chilled on ice, DMSO or compound is added as appropriate, and the solution is added 1:1 to the (compound treated) ice cold lysates, and immediately applied to a tyrosine peptide PAMCHIP96. The assay is run on a PAMSTATION96 according to standard procedures: after loading of the plate, solution is pumped once onto the wells, a first exposure is read (150 mSec) and then a kinetic reading program (reading every 5 min for 150 mSec) is run for 60 min. Lysates are run in 6 technical replicates for each condition; replicates are always applied horizontally next to each other to avoid vertical strip effects of the chip.
# The data (spot images) are further quantified and linked to the peptide identities using EVOLVE PAMGRID software (PAMGENE). The quantified data are then fit to a curve using CurveFitHT software (PAMGENE) using the Vinip2 curve fitting algorithm, applied on the first 30 min of the assay; the initial velocity is derived at the first kinetic time point read. All subsequent data analyses were done on initial velocities (Vini) using the software packages Omniviz and R (Ihaka, R. and Gentlemen, R. (1996) R: a language for data analysis and graphics. J. Comput. Graph. Stat., 5, 299-314).
# After replacing the Vini's lower than 0.1 by 0.1, all Vini's were log 2-transformed to approach normality.
smiles,measurement,setting,value
"COc1cc2ncnc3c2cc1OCCCCCN(C)Cc1ccc(Br)cc1N3 [MTKI, 4,6-ethanediylidenepyrimido[4,5-b][6,1,12]benzoxadiazacyclopentadecine, 17-bromo-8,9,10,11,12,13,14,19-octahydro-20-methoxy-13-methyl-]",ratio of initial velocity of peptide phosphorylation,"A431 lysate, ENOG_37_49_Y43",0.83
same,ratio of initial velocity of peptide phosphorylation,"A431 lysate, GSK3B_209_221_Y216",0.56
same,ratio of initial velocity of peptide phosphorylation,"BT474OD lysate, CDK7_157_169_S164",0.74
same,ratio of initial velocity of peptide phosphorylation,"BT474OD lysate, CREB1_122_134_Y134/S133",0.90
same,ratio of initial velocity of peptide phosphorylation,"BT474OD lysate, DDR2_733_745_Y740",0.83
same,ratio of initial velocity of peptide phosphorylation,"BT474OD lysate, ENOG_37_49_Y43",0.55
same,ratio of initial velocity of peptide phosphorylation,"BT474OD lysate, GSK3B_209_221_Y216",0.87
same,ratio of initial velocity of peptide phosphorylation,"BT474OD lysate, MK10_216_228_T221/Y223",0.76
same,ratio of initial velocity of peptide phosphorylation,"BT474OD lysate, NCF1_313_325_S315/S320",0.88
same,ratio of initial velocity of peptide phosphorylation,"BT474OD lysate, NPT2_501_513_T508",0.77
same,ratio of initial velocity of peptide phosphorylation,"BT474OD lysate, PECA1_706_718_Y713",0.51
same,ratio of initial velocity of peptide phosphorylation,"BT474OD lysate, PLCG1_764_776_Y771",0.68
same,ratio of initial velocity of peptide phosphorylation,"BT474OD lysate, PRRX2_202_214_Y214",0.56
same,ratio of initial velocity of peptide phosphorylation,"BT474OD lysate, RASA1_453_465_Y460",0.61
same,ratio of initial velocity of peptide phosphorylation,"BT474OD lysate, STAT2_683_695_Y690",0.91
same,ratio of initial velocity of peptide phosphorylation,"BT474OD lysate, SYN1_2_14_S9",0.94
same,ratio of initial velocity of peptide phosphorylation,"BT474OD lysate, TYRO3_679_691_Y686",0.88
same,ratio of initial velocity of peptide phosphorylation,"Colo699 lysate, CDK7_157_169_S164",0.93
same,ratio of initial velocity of peptide phosphorylation,"Colo699 lysate, CREB1_122_134_Y134/S133",0.86
same,ratio of initial velocity of peptide phosphorylation,"Colo699 lysate, DDR2_733_745_Y740",1.20
same,ratio of initial velocity of peptide phosphorylation,"Colo699 lysate, ENOG_37_49_Y43",0.86
same,ratio of initial velocity of peptide phosphorylation,"Colo699 lysate, GSK3B_209_221_Y216",1.03
same,ratio of initial velocity of peptide phosphorylation,"Colo699 lysate, MK10_216_228_T221/Y223",0.86
same,ratio of initial velocity of peptide phosphorylation,"Colo699 lysate, NCF1_313_325_S315/S320",0.93
same,ratio of initial velocity of peptide phosphorylation,"Colo699 lysate, NPT2_501_513_T508",0.95
same,ratio of initial velocity of peptide phosphorylation,"Colo699 lysate, PECA1_706_718_Y713",0.83
same,ratio of initial velocity of peptide phosphorylation,"Colo699 lysate, PGFRB_768_780_Y771/Y775/Y778",0.23
same,ratio of initial velocity of peptide phosphorylation,"Colo699 lysate, PLCG1_764_776_Y771",0.78
same,ratio of initial velocity of peptide phosphorylation,"Colo699 lysate, PRRX2_202_214_Y214",0.76
same,ratio of initial velocity of peptide phosphorylation,"Colo699 lysate, RASA1_453_465_Y460",0.81
same,ratio of initial velocity of peptide phosphorylation,"Colo699 lysate, STAT2_683_695_Y690",0.93
same,ratio of initial velocity of peptide phosphorylation,"Colo699 lysate, SYN1_2_14_S9",0.95
same,ratio of initial velocity of peptide phosphorylation,"Colo699 lysate, TYRO3_679_691_Y686",1.18
same,ratio of initial velocity of peptide phosphorylation,"DU145 lysate, CDK7_157_169_S164",0.63
same,ratio of initial velocity of peptide phosphorylation,"DU145 lysate, CREB1_122_134_Y134/S133",0.93
same,ratio of initial velocity of peptide phosphorylation,"DU145 lysate, DDR2_733_745_Y740",0.71
same,ratio of initial velocity of peptide phosphorylation,"DU145 lysate, ENOG_37_49_Y43",0.65
same,ratio of initial velocity of peptide phosphorylation,"DU145 lysate, GSK3B_209_221_Y216",0.94
same,ratio of initial velocity of peptide phosphorylation,"DU145 lysate, MK10_216_228_T221/Y223",0.66
same,ratio of initial velocity of peptide phosphorylation,"DU145 lysate, NCF1_313_325_S315/S320",0.87
same,ratio of initial velocity of peptide phosphorylation,"DU145 lysate, NPT2_501_513_T508",0.90
same,ratio of initial velocity of peptide phosphorylation,"DU145 lysate, PECA1_706_718_Y713",0.73
same,ratio of initial velocity of peptide phosphorylation,"DU145 lysate, PGFRB_768_780_Y771/Y775/Y778",0.39
same,ratio of initial velocity of peptide phosphorylation,"DU145 lysate, PLCG1_764_776_Y771",0.76
same,ratio of initial velocity of peptide phosphorylation,"DU145 lysate, PRRX2_202_214_Y214",0.68
same,ratio of initial velocity of peptide phosphorylation,"DU145 lysate, RASA1_453_465_Y460",0.69
same,ratio of initial velocity of peptide phosphorylation,"DU145 lysate, STAT2_683_695_Y690",0.93
same,ratio of initial velocity of peptide phosphorylation,"DU145 lysate, SYN1_2_14_S9",0.92
same,ratio of initial velocity of peptide phosphorylation,"DU145 lysate, TYRO3_679_691_Y686",0.68
same,ratio of initial velocity of peptide phosphorylation,"GTL16 lysate, CDK7_157_169_S164",0.98
same,ratio of initial velocity of peptide phosphorylation,"GTL16 lysate, CREB1_122_134_Y134/S133",0.91
same,ratio of initial velocity of peptide phosphorylation,"GTL16 lysate, DDR2_733_745_Y740",1.00
same,ratio of initial velocity of peptide phosphorylation,"GTL16 lysate, ENOG_37_49_Y43",0.80
same,ratio of initial velocity of peptide phosphorylation,"GTL16 lysate, GSK3B_209_221_Y216",1.11
same,ratio of initial velocity of peptide phosphorylation,"GTL16 lysate, MK10_216_228_T221/Y223",0.96
same,ratio of initial velocity of peptide phosphorylation,"GTL16 lysate, NCF1_313_325_S315/S320",0.96
same,ratio of initial velocity of peptide phosphorylation,"GTL16 lysate, NPT2_501_513_T508",0.89
same,ratio of initial velocity of peptide phosphorylation,"GTL16 lysate, PECA1_706_718_Y713",0.95
same,ratio of initial velocity of peptide phosphorylation,"GTL16 lysate, PGFRB_768_780_Y771/Y775/Y778",0.75
same,ratio of initial velocity of peptide phosphorylation,"GTL16 lysate, PLCG1_764_776_Y771",0.90
same,ratio of initial velocity of peptide phosphorylation,"GTL16 lysate, PRRX2_202_214_Y214",0.97
same,ratio of initial velocity of peptide phosphorylation,"GTL16 lysate, RASA1_453_465_Y460",0.81
same,ratio of initial velocity of peptide phosphorylation,"GTL16 lysate, STAT2_683_695_Y690",1.06
same,ratio of initial velocity of peptide phosphorylation,"GTL16 lysate, SYN1_2_14_S9",0.91
same,ratio of initial velocity of peptide phosphorylation,"GTL16 lysate, TYRO3_679_691_Y686",0.92
same,ratio of initial velocity of peptide phosphorylation,"H23 lysate, CDK7_157_169_S164",0.92
same,ratio of initial velocity of peptide phosphorylation,"H23 lysate, CREB1_122_134_Y134/S133",1.02
same,ratio of initial velocity of peptide phosphorylation,"H23 lysate, DDR2_733_745_Y740",0.81
same,ratio of initial velocity of peptide phosphorylation,"H23 lysate, ENOG_37_49_Y43",0.80
same,ratio of initial velocity of peptide phosphorylation,"H23 lysate, GSK3B_209_221_Y216",1.09
same,ratio of initial velocity of peptide phosphorylation,"H23 lysate, MK10_216_228_T221/Y223",0.98
same,ratio of initial velocity of peptide phosphorylation,"H23 lysate, NCF1_313_325_S315/S320",0.86
same,ratio of initial velocity of peptide phosphorylation,"H23 lysate, NPT2_501_513_T508",0.91
same,ratio of initial velocity of peptide phosphorylation,"H23 lysate, PECA1_706_718_Y713",0.62
same,ratio of initial velocity of peptide phosphorylation,"H23 lysate, PLCG1_764_776_Y771",0.84
same,ratio of initial velocity of peptide phosphorylation,"H23 lysate, PRRX2_202_214_Y214",0.67
same,ratio of initial velocity of peptide phosphorylation,"H23 lysate, RASA1_453_465_Y460",0.71
same,ratio of initial velocity of peptide phosphorylation,"H23 lysate, STAT2_683_695_Y690",0.93
same,ratio of initial velocity of peptide phosphorylation,"H23 lysate, SYN1_2_14_S9",1.01

# — patent publication US20100234238A1, “METHOD FOR PROFILING KINASE INHIBITORS” (Janssen Pharmaceutica N V, priority 2006, published 2010)
